Laboratory results taken from PMC4861429, “Molecular Insights into Toluene Sensing in the TodS/TodT Signal Transduction System” (The Journal of Biological Chemistry, 2016).
Results are given in words; binding and its absence hold for the method and conditions named.

Sequences of proteins named here, by UniProt entry; tags and fusion partners are left off. Residues count along the entry.
UniProt A5W4E3, residues 43-168: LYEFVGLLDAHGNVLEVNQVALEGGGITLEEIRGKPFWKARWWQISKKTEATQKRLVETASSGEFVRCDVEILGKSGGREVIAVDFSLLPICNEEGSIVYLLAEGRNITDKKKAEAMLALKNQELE

Target: TodS PAS1 (residues 43–168) (Pseudomonas putida F1) (UniProt A5W4E3)
Assay: crystal structure; PAS1(43–168) apo, with 1,2,4-TMB, and SeMet L71M with toluene; sitting or hanging drop, 2.8–3.0 M ammonium phosphate, 0.1 M Tris-HCl pH 8.0–8.5, 21 °C; two molecules in the asymmetric unit; both purified

binding: no binding
Substance: TodS PAS1 (residues 43–168) (from UniProt A5W4E3 43-168) (domain or fragment)
